In publication PMC8225674 one finds binding data, which are given here for 1 substance.

The chains behind the UniProt entries cited, without tags or fusion partners. Residues count along the entry.
UniProt P35441, residues 19-1170: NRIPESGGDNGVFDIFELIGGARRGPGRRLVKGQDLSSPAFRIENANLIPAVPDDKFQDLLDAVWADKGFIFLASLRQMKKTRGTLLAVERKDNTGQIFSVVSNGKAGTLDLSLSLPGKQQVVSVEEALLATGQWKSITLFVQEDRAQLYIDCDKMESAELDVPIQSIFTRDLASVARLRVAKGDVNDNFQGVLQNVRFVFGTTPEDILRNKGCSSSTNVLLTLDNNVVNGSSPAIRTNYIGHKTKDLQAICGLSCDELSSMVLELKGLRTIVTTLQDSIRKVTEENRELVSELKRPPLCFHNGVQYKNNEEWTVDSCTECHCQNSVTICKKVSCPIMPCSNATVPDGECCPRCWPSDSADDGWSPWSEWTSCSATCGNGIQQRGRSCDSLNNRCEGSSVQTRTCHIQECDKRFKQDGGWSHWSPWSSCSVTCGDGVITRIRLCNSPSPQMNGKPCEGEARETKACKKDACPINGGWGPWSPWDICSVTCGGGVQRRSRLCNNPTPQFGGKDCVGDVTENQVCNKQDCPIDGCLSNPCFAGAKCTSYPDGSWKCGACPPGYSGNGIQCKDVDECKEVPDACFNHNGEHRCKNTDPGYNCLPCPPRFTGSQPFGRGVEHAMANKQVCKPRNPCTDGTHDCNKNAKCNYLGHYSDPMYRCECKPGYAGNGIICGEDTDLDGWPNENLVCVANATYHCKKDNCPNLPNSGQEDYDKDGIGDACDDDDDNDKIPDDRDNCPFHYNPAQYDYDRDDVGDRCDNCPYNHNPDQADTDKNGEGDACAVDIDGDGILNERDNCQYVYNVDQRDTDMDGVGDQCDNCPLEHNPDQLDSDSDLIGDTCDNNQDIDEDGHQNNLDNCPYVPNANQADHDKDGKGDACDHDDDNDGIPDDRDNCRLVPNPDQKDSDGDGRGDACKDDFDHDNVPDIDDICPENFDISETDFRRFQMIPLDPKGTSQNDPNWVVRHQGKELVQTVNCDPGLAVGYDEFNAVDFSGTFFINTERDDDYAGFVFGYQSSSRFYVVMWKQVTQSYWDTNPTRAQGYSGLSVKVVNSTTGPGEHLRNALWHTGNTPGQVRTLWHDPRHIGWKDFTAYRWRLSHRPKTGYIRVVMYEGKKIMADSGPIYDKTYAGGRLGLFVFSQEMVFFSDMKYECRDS

No constants are given. Whether binding was seen depends on the method and setting. Binding seen in cells or lysates may run through a third protein. Some binding calls cover weakened binding; strength is not graded here.

In this assay the target is T1, Protein kinase R (PKR)-like ER kinase (PERK), endogenous in mouse heart (mouse (endogenous in heart)) (UniProt Q9Z2B5).
T1 sequence: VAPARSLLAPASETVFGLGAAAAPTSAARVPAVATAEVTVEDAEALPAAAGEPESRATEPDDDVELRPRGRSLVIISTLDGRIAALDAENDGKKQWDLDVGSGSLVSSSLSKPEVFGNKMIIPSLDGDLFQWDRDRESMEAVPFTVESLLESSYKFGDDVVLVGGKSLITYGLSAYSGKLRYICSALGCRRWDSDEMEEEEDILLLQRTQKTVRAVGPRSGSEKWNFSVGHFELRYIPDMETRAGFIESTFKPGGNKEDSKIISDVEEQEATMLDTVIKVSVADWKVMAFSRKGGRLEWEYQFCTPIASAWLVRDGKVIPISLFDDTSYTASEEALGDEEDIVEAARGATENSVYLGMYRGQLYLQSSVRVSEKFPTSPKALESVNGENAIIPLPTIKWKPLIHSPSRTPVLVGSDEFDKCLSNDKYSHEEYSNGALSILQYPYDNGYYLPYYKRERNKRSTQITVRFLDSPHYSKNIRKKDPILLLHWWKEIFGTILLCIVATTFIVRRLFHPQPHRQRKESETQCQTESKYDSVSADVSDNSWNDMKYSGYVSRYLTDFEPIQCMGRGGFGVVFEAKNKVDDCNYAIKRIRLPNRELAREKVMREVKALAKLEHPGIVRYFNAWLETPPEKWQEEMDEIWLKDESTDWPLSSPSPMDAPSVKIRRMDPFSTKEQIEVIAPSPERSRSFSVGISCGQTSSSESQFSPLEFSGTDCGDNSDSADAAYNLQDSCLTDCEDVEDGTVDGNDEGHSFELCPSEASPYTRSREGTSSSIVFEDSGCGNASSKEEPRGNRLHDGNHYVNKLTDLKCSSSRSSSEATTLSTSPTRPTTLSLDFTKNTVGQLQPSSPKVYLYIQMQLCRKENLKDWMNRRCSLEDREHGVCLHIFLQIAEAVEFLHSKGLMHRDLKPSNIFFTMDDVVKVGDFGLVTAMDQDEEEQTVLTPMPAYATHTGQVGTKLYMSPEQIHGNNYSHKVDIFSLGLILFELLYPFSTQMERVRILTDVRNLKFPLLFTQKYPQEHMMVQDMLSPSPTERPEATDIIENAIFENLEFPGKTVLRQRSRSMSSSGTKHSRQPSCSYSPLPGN
Kind of assay: co-IP; protein extracts of Thbs1 DTG hearts at 6 weeks of age; IP of PERK (Protein G Dynabeads) or of Thbs1 (biotin-labelled antibody, streptavidin Dynabeads) overnight at 4 °C; 50 mM Tris-HCl pH 7.4, 150 mM NaCl, 1% Triton X-100; western blot for Thbs1 and PERK. In general terms: A western blot detects proteins with antibodies after separation by electrophoresis.

With “Thrombospondin-1 (Thbs1), full-length mouse, cardiomyocyte-specific transgene (from UniProt P35441 19-1170)”, the binding result is “binds”.
